System: APP/PS1 mice
Experiment: Intracerebral injection, induction of β-amyloidosis
Assay type: in vivo, mouse
Details: 2.5 μl intracerebral in 2.5 month old APP/PS1 mice, analysis after 8 weeks

nitrated Aβ1-42: synthetic Aβ1-42 nitrated at tyrosine 10 by peroxynitrite treatment
3NTyr10-Aβ immunoreactivity in brain: strong 3NTyr10-Aβ immunoreactivity | Iba1 (microglial activation): increase

From patent US9011862B2, “Inhibitors of the nitration of amyloid β peptides and their uses in the diagnosis and treatment of Alzheimer's disease” (Rheinische Friedrich-Wilhelms-Universität Bonn, priority 2009, dated 2015)
